In PMC9425971:
No constants are given. Whether binding was seen depends on the method and setting. Binding seen in cells or lysates may run through a third protein. Some binding calls cover weakened binding; strength is not graded here. For some of these results: Sequences can lack the tags named with a protein. Blank lines part the entries; values can stand above or below the molecule they belong to.

Sequences of proteins named here, by UniProt entry; tags and fusion partners are left off.
UniProt P19525: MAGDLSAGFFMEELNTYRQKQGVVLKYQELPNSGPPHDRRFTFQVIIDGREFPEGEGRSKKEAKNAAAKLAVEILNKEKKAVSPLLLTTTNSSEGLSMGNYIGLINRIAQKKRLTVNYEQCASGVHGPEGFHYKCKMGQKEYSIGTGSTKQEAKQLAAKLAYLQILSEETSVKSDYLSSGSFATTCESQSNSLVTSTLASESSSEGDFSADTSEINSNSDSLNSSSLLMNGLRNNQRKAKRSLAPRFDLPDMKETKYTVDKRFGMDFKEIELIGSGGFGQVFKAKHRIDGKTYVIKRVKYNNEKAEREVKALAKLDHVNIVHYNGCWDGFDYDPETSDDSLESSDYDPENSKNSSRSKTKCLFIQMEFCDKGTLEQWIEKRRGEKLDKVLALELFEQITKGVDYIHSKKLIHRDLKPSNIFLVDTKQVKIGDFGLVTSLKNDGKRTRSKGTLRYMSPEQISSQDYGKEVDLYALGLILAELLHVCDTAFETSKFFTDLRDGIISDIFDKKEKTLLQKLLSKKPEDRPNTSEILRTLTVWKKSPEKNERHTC

Assays:
[1] = biological target: T1, HACE1-Myc (UniProt Q8IYU2); assay: co-IP; HEK-293T cells co-transfected with PKR-Flag and HACE1-Myc (or empty vectors), lysed, immunoprecipitated with anti-MYC or anti-Flag, Western blotting; also with circRNA-CREIT overexpression vector, which increased the PKR-Flag precipitated by HACE1-Myc
T1 sequence: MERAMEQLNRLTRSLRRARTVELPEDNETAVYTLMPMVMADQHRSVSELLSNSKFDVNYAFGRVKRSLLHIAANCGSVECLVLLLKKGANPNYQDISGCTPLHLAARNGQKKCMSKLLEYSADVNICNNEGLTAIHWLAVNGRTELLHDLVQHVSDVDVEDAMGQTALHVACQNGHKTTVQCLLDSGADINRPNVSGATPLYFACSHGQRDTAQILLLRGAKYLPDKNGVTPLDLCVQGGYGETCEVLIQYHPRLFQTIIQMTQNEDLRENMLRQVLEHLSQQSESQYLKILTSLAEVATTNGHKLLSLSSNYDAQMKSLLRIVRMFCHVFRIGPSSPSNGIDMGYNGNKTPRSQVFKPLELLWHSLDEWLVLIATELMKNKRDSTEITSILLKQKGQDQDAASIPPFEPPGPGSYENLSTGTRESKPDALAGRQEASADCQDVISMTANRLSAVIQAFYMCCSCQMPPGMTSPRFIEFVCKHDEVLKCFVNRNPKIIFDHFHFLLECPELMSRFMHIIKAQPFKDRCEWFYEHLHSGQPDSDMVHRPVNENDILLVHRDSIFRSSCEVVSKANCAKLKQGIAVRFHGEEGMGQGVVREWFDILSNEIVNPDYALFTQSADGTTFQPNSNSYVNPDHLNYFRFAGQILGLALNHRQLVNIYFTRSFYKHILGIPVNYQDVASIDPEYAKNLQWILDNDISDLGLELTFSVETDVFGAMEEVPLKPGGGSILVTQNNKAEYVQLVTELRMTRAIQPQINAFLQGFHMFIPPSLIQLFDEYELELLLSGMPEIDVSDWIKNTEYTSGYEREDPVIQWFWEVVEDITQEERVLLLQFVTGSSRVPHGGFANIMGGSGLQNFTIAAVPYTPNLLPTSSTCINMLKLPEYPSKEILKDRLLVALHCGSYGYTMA

[2] = biological target: T2, HACE1-Flag (UniProt Q8IYU2); assay: co-IP; HEK-293T cells transfected with HACE1-Flag or PKR-Flag, lysed, immunoprecipitated with anti-Flag, Western blotting with anti-PKR or anti-HACE1 (endogenous partner)
T2 sequence: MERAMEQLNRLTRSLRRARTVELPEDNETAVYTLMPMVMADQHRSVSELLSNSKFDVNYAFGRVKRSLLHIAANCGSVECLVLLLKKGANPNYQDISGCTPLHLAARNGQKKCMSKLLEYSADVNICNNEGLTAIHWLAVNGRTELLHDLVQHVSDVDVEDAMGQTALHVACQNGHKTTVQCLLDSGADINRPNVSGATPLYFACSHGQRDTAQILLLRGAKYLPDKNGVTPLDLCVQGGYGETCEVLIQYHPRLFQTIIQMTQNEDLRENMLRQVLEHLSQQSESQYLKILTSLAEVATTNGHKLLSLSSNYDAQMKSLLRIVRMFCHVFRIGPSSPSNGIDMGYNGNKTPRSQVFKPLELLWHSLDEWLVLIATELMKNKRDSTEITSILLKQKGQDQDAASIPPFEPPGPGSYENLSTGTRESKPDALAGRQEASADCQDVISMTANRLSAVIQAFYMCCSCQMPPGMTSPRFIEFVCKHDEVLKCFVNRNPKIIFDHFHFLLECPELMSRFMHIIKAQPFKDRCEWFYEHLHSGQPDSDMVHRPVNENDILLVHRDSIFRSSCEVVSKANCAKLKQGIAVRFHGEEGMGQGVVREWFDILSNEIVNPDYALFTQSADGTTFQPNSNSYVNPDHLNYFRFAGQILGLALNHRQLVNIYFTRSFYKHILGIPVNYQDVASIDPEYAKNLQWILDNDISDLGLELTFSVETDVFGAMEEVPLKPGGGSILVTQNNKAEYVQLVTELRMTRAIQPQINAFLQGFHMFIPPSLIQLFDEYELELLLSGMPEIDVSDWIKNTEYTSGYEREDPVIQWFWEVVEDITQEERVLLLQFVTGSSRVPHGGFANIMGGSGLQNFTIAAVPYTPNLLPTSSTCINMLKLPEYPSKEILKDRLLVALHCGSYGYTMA

[3] = biological target: PKR-Flag (UniProt P19525); assay: as above
[4] = biological target: PKR-Flag (UniProt P19525); assay: co-IP; HEK-293T cells co-transfected with PKR-Flag and HACE1-Myc (or empty vectors), lysed, immunoprecipitated with anti-MYC or anti-Flag, Western blotting; also with circRNA-CREIT overexpression vector, which increased the PKR-Flag precipitated by HACE1-Myc

- binding [1]: binds
Molecule: PKR-Flag (from UniProt P19525 1-551) (enzyme)

- binding [2]: binds
Molecule: endogenous PKR (from UniProt P19525 1-551) (enzyme)

- binding [3]: binds
B1: endogenous HACE1 (enzyme, UniProt Q8IYU2 1-909)
chain: MERAMEQLNRLTRSLRRARTVELPEDNETAVYTLMPMVMADQHRSVSELLSNSKFDVNYAFGRVKRSLLHIAANCGSVECLVLLLKKGANPNYQDISGCTPLHLAARNGQKKCMSKLLEYSADVNICNNEGLTAIHWLAVNGRTELLHDLVQHVSDVDVEDAMGQTALHVACQNGHKTTVQCLLDSGADINRPNVSGATPLYFACSHGQRDTAQILLLRGAKYLPDKNGVTPLDLCVQGGYGETCEVLIQYHPRLFQTIIQMTQNEDLRENMLRQVLEHLSQQSESQYLKILTSLAEVATTNGHKLLSLSSNYDAQMKSLLRIVRMFCHVFRIGPSSPSNGIDMGYNGNKTPRSQVFKPLELLWHSLDEWLVLIATELMKNKRDSTEITSILLKQKGQDQDAASIPPFEPPGPGSYENLSTGTRESKPDALAGRQEASADCQDVISMTANRLSAVIQAFYMCCSCQMPPGMTSPRFIEFVCKHDEVLKCFVNRNPKIIFDHFHFLLECPELMSRFMHIIKAQPFKDRCEWFYEHLHSGQPDSDMVHRPVNENDILLVHRDSIFRSSCEVVSKANCAKLKQGIAVRFHGEEGMGQGVVREWFDILSNEIVNPDYALFTQSADGTTFQPNSNSYVNPDHLNYFRFAGQILGLALNHRQLVNIYFTRSFYKHILGIPVNYQDVASIDPEYAKNLQWILDNDISDLGLELTFSVETDVFGAMEEVPLKPGGGSILVTQNNKAEYVQLVTELRMTRAIQPQINAFLQGFHMFIPPSLIQLFDEYELELLLSGMPEIDVSDWIKNTEYTSGYEREDPVIQWFWEVVEDITQEERVLLLQFVTGSSRVPHGGFANIMGGSGLQNFTIAAVPYTPNLLPTSSTCINMLKLPEYPSKEILKDRLLVALHCGSYGYTMA

- binding [4]: binds
B2: HACE1-Myc (enzyme, UniProt Q8IYU2 1-909)
chain: MERAMEQLNRLTRSLRRARTVELPEDNETAVYTLMPMVMADQHRSVSELLSNSKFDVNYAFGRVKRSLLHIAANCGSVECLVLLLKKGANPNYQDISGCTPLHLAARNGQKKCMSKLLEYSADVNICNNEGLTAIHWLAVNGRTELLHDLVQHVSDVDVEDAMGQTALHVACQNGHKTTVQCLLDSGADINRPNVSGATPLYFACSHGQRDTAQILLLRGAKYLPDKNGVTPLDLCVQGGYGETCEVLIQYHPRLFQTIIQMTQNEDLRENMLRQVLEHLSQQSESQYLKILTSLAEVATTNGHKLLSLSSNYDAQMKSLLRIVRMFCHVFRIGPSSPSNGIDMGYNGNKTPRSQVFKPLELLWHSLDEWLVLIATELMKNKRDSTEITSILLKQKGQDQDAASIPPFEPPGPGSYENLSTGTRESKPDALAGRQEASADCQDVISMTANRLSAVIQAFYMCCSCQMPPGMTSPRFIEFVCKHDEVLKCFVNRNPKIIFDHFHFLLECPELMSRFMHIIKAQPFKDRCEWFYEHLHSGQPDSDMVHRPVNENDILLVHRDSIFRSSCEVVSKANCAKLKQGIAVRFHGEEGMGQGVVREWFDILSNEIVNPDYALFTQSADGTTFQPNSNSYVNPDHLNYFRFAGQILGLALNHRQLVNIYFTRSFYKHILGIPVNYQDVASIDPEYAKNLQWILDNDISDLGLELTFSVETDVFGAMEEVPLKPGGGSILVTQNNKAEYVQLVTELRMTRAIQPQINAFLQGFHMFIPPSLIQLFDEYELELLLSGMPEIDVSDWIKNTEYTSGYEREDPVIQWFWEVVEDITQEERVLLLQFVTGSSRVPHGGFANIMGGSGLQNFTIAAVPYTPNLLPTSSTCINMLKLPEYPSKEILKDRLLVALHCGSYGYTMA
